Results are given in words; binding and its absence hold for the method and conditions named. Binding seen in cells or lysates may run through a third protein. Some binding calls cover weakened binding; strength is not graded here. Sequences can lack the tags named with a protein.
T1: cLUC-CNGC9-N (Arabidopsis thaliana) (UniProt Q9M0A4)
T1 sequence: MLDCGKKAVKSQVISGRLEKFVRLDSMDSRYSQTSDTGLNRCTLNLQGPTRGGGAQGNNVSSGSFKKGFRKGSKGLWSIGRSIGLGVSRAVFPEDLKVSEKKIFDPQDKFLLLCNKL

T2: cLUC-CNGC6-N (Arabidopsis thaliana) (UniProt O82226)
T2 sequence: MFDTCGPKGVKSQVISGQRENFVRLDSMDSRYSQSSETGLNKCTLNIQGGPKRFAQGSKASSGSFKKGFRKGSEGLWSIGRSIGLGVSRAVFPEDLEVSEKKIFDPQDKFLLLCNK

T3: cLUC-CNGC6 (Arabidopsis thaliana) (UniProt O82226)
T3 sequence: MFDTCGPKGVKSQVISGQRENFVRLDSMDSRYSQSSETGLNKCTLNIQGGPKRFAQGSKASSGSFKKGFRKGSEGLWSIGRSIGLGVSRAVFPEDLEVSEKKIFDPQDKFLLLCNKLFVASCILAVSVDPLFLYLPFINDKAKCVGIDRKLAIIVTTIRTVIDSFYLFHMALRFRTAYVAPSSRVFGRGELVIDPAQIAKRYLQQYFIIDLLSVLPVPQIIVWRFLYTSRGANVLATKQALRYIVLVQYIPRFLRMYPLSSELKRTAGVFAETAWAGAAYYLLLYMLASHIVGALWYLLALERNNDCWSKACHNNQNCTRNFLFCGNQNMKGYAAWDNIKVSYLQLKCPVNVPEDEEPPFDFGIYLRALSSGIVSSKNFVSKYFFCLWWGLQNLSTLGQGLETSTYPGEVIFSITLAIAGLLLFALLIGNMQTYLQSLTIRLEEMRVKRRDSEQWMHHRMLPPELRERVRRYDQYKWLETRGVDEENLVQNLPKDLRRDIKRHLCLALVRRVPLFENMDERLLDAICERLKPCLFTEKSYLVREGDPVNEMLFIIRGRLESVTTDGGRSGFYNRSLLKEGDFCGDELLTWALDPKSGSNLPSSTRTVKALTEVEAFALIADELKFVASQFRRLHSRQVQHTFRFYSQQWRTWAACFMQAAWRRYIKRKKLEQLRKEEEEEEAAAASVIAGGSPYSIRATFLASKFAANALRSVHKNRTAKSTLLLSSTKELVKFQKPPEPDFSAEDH

T4: cLUC-CNGC5 (Arabidopsis thaliana) (UniProt Q8RWS9)
T4 sequence: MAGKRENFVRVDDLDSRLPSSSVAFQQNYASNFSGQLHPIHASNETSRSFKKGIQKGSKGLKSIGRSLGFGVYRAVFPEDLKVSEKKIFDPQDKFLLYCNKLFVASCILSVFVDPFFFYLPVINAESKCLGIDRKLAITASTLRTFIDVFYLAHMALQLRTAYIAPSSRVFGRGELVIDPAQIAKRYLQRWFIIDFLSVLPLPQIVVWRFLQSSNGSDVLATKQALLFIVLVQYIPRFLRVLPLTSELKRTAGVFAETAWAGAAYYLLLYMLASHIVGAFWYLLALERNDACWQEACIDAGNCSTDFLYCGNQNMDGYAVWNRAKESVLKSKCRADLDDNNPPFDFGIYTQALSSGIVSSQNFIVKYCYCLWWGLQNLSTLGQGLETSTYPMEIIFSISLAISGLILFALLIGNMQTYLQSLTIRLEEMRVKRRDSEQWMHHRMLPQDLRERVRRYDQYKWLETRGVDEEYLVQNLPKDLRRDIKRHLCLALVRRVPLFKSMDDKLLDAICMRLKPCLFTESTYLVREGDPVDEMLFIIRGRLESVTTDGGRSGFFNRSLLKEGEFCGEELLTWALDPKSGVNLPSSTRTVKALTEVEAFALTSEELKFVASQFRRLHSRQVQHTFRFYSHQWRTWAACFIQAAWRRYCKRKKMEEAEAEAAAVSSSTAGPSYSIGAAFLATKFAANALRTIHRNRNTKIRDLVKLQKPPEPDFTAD

T5: cLUC-CNGC9 (Arabidopsis thaliana) (UniProt Q9M0A4)
T5 sequence: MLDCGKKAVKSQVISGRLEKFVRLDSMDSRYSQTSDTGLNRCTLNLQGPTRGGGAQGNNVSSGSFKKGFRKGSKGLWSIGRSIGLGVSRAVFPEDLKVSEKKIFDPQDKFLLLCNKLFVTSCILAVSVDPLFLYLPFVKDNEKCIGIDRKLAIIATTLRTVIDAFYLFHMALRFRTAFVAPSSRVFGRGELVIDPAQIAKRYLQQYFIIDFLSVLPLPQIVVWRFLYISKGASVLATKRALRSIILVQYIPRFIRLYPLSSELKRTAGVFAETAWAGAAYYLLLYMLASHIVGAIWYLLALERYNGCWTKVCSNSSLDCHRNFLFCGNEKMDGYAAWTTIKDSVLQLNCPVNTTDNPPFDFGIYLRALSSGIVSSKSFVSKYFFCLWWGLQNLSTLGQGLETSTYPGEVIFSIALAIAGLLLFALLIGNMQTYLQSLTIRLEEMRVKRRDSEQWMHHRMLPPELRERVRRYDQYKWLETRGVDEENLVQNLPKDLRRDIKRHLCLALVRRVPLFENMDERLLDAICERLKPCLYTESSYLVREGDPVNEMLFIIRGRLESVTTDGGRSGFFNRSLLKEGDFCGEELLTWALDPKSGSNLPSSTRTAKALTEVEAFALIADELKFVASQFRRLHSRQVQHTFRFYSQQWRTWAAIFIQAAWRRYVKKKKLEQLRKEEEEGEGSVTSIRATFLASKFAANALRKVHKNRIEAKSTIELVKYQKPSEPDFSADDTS

T6: cLUC-CNGC5-N (Arabidopsis thaliana) (UniProt Q8RWS9)
T6 sequence: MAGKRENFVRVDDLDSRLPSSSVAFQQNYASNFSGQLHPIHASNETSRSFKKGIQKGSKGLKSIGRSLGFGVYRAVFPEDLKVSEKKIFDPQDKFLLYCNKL

T7: CNGC5-YFP^N (Arabidopsis thaliana) (UniProt Q8RWS9)
T7 sequence: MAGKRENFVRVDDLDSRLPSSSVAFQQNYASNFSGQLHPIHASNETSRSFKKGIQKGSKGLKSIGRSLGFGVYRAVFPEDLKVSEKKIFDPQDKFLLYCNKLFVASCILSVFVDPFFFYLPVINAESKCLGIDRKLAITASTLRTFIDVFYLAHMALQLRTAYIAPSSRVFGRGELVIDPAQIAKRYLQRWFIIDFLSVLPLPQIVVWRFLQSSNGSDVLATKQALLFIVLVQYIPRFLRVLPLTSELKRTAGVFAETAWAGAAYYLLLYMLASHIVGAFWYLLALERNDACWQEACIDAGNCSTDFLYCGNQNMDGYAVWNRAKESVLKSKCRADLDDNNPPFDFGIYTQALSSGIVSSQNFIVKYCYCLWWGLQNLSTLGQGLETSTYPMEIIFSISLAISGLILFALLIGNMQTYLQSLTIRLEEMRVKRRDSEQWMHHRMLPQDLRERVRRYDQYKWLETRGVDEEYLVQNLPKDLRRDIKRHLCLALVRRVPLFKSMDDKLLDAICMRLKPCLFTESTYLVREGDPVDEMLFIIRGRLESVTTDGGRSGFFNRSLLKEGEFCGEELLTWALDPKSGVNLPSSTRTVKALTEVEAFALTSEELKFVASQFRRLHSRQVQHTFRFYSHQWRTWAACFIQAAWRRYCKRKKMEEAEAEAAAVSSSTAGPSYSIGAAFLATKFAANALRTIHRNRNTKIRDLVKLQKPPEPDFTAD

T8: CNGC9-YFP^N (Arabidopsis thaliana) (UniProt Q9M0A4)
T8 sequence: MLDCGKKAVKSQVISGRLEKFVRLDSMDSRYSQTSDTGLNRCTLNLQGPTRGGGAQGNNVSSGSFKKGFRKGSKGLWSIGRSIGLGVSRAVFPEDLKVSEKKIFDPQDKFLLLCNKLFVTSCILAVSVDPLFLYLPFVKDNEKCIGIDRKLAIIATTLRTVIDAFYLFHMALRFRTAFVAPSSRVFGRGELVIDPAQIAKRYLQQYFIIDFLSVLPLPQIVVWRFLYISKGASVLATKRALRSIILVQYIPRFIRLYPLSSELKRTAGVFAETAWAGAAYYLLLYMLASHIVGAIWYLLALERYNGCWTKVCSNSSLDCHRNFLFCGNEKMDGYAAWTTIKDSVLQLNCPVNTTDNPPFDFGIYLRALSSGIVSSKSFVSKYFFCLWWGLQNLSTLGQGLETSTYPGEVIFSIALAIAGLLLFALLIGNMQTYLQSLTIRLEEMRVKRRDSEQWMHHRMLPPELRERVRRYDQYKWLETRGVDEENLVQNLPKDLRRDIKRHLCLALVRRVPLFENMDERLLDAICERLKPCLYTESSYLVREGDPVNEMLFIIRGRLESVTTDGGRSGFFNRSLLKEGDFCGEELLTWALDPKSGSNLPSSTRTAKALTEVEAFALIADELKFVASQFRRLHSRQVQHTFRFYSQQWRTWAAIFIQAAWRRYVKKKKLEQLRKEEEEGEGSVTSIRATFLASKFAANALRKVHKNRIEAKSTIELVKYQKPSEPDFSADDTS

T9: CNGC6-YFP^N (Arabidopsis thaliana) (UniProt O82226)
T9 sequence: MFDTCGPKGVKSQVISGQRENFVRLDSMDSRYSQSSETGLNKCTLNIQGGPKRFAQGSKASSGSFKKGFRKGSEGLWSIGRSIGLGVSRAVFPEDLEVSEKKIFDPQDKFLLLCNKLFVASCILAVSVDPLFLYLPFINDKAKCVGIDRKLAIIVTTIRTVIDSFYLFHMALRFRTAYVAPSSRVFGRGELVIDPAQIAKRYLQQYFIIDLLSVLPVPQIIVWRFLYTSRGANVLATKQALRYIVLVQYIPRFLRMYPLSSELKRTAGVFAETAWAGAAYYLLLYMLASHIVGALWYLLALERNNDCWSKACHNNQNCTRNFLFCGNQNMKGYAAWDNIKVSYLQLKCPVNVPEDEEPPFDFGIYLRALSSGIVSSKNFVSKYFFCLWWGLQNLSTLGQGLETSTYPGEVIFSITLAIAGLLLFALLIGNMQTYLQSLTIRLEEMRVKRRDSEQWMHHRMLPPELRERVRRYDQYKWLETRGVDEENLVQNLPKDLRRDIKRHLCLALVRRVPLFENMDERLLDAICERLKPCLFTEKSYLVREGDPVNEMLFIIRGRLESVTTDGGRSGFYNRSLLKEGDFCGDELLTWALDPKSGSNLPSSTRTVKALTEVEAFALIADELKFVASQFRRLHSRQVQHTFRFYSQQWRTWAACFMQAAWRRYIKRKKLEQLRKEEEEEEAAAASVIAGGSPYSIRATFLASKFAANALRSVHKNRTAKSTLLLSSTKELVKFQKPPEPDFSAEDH


Key:
[1] = molecular target: T1, cLUC-CNGC9-N (Arabidopsis thaliana); test: split reporter; firefly luciferase complementation in N. benthamiana leaves; nLUC and cLUC fusions co-injected by Agrobacterium GV3101; 1 mM luciferin sprayed 48 h after injection, photos 7 min later
[2] = molecular target: T2, cLUC-CNGC6-N (Arabidopsis thaliana); test: as above
[3] = molecular target: T3, cLUC-CNGC6 (Arabidopsis thaliana); test: as above
[4] = molecular target: T4, cLUC-CNGC5 (Arabidopsis thaliana); test: as above
[5] = molecular target: T5, cLUC-CNGC9 (Arabidopsis thaliana); test: as above
[6] = molecular target: T6, cLUC-CNGC5-N (Arabidopsis thaliana); test: as above
[7] = molecular target: T7, CNGC5-YFP^N (Arabidopsis thaliana); test: split reporter; BiFC with split YFP in Xenopus laevis oocytes; cRNA 25 ng per vector micro-injected; 2-3 days at 16 °C in ND96; confocal microscopy
[8] = molecular target: T8, CNGC9-YFP^N (Arabidopsis thaliana); test: as above
[9] = molecular target: T9, CNGC6-YFP^N (Arabidopsis thaliana); test: as above

binding [1]	binding [2]	binding [3]	binding [4]	binding [5]	binding [6]	binding [7]	binding [8]	binding [9]	Binder
binds	binds	binds	binds	binds	binds				CPK1-nLUC (enzyme, UniProt Q06850 1-610) MGNTCVGPSRNGFLQSVSAAMWRPRDGDDSASMSNGDIASEAVSGELRSRLSDEVQNKPPEQVTMPKPGTDVETKDREIRTESKPETLEEISLESKPETKQETKSETKPESKPDPPAKPKKPKHMKRVSSAGLRTESVLQRKTENFKEFYSLGRKLGQGQFGTTFLCVEKTTGKEFACKSIAKRKLLTDEDVEDVRREIQIMHHLAGHPNVISIKGAYEDVVAVHLVMECCAGGELFDRIIQRGHYTERKAAELTRTIVGVVEACHSLGVMHRDLKPENFLFVSKHEDSLLKTIDFGLSMFFKPDDVFTDVVGSPYYVAPEVLRKRYGPEADVWSAGVIVYILLSGVPPFWAETEQGIFEQVLHGDLDFSSDPWPSISESAKDLVRKMLVRDPKKRLTAHQVLCHPWVQVDGVAPDKPLDSAVLSRMKQFSAMNKFKKMALRVIAESLSEEEIAGLKEMFNMIDADKSGQITFEELKAGLKRVGANLKESEILDLMQAADVDNSGTIDYKEFIAATLHLNKIEREDHLFAAFTYFDKDGSGYITPDELQQACEEFGVEDVRIEELMRDVDQDNDGRIDYNEFVAMMQKGSITGGPVKMGLEKSFSIALKL
						binds	binds	binds	CPK1-YFP^C (enzyme, UniProt Q06850 1-610) MGNTCVGPSRNGFLQSVSAAMWRPRDGDDSASMSNGDIASEAVSGELRSRLSDEVQNKPPEQVTMPKPGTDVETKDREIRTESKPETLEEISLESKPETKQETKSETKPESKPDPPAKPKKPKHMKRVSSAGLRTESVLQRKTENFKEFYSLGRKLGQGQFGTTFLCVEKTTGKEFACKSIAKRKLLTDEDVEDVRREIQIMHHLAGHPNVISIKGAYEDVVAVHLVMECCAGGELFDRIIQRGHYTERKAAELTRTIVGVVEACHSLGVMHRDLKPENFLFVSKHEDSLLKTIDFGLSMFFKPDDVFTDVVGSPYYVAPEVLRKRYGPEADVWSAGVIVYILLSGVPPFWAETEQGIFEQVLHGDLDFSSDPWPSISESAKDLVRKMLVRDPKKRLTAHQVLCHPWVQVDGVAPDKPLDSAVLSRMKQFSAMNKFKKMALRVIAESLSEEEIAGLKEMFNMIDADKSGQITFEELKAGLKRVGANLKESEILDLMQAADVDNSGTIDYKEFIAATLHLNKIEREDHLFAAFTYFDKDGSGYITPDELQQACEEFGVEDVRIEELMRDVDQDNDGRIDYNEFVAMMQKGSITGGPVKMGLEKSFSIALKL

Source: PMC11733299
